Measured values published in PMC5849714, “Direct coupling of detergent purified human mGlu5 receptor to the heterotrimeric G proteins Gq and Gs” (Scientific Reports, 2018).
No constants are given. Whether binding was seen depends on the method and setting.

Sequences of proteins named here, by UniProt entry; tags and fusion partners are left off. A change or cut given only in a name is not applied to a line headed by its entry. Residues count along the entry.
UniProt P41594, residues 21-856: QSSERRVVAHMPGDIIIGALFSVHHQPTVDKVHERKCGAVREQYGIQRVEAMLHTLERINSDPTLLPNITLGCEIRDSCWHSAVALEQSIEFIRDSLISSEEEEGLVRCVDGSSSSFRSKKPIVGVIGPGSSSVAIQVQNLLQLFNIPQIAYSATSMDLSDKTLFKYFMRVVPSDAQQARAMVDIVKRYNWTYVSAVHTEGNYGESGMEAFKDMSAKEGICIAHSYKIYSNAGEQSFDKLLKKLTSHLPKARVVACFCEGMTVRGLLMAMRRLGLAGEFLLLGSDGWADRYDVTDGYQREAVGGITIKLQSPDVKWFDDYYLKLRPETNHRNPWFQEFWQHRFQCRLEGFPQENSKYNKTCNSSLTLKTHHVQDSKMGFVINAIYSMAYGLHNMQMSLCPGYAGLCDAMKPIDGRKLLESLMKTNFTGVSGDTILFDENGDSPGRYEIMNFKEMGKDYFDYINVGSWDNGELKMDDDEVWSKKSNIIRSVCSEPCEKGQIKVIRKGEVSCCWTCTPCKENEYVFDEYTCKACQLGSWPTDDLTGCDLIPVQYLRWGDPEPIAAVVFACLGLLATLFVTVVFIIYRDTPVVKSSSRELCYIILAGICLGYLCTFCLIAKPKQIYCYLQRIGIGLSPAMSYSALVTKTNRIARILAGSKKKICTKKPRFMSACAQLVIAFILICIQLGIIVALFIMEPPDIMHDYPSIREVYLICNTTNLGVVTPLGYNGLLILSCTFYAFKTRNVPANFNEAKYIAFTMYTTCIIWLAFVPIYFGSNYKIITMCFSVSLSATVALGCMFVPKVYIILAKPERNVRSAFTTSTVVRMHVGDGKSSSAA

Biological target: SNAP-mGlu5-Δ856 (FLAG-SNAP-tagged human mGlu5 receptor truncated after A856) (human) (UniProt P41594)
Experiment: condition: only under reducing conditions (DTT), on SDS-PAGE; reducing SDS-PAGE; SNAP-Red-labelled receptor extracted from HEK293 with 0.83% MNG3/0.083% CHS, supernatant with 10 mM dithiothreitol, 5 min at 37 °C, 4–20% Tris Glycine gel, far-red scan

binding: no binding
Substance: SNAP-mGlu5-Δ856 (FLAG-SNAP-tagged human mGlu5 receptor truncated after A856) (from UniProt P41594-2 21-856)
